Results as given in article PMC10003074.
These are yes or no findings as the source states them, for the method shown. In cells and extracts the contact can be indirect. Some binding calls cover weakened binding; strength is not graded here.

T1: Ly108-2 (SLAMF6 isoform), from pervanadate-treated BI-141 cells (mouse) (UniProt Q9ET39)
T1 sequence (chain, tyrosine phosphorylation after pervanadate treatment; sites not mapped): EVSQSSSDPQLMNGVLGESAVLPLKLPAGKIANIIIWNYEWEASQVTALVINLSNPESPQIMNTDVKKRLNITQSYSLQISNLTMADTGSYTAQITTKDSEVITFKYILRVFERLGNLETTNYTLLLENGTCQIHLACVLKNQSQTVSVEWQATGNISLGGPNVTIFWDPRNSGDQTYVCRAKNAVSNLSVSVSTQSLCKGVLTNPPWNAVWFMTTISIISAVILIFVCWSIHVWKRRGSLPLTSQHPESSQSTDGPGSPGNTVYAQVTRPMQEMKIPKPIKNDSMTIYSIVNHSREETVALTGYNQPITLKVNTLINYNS

T2: Ly108-H1 in thymocytes from transgenic mice (mouse) (UniProt Q9ET39)
T2 sequence: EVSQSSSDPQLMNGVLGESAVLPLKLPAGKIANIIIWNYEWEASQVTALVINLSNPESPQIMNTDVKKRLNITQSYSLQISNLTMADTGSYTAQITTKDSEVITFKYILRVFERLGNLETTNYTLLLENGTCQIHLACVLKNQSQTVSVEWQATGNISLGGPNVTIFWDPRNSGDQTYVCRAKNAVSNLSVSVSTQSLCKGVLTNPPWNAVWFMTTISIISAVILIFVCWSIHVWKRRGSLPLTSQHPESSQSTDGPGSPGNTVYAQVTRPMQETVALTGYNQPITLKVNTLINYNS


Key:
[1] = target: T1, Ly108-2 (SLAMF6 isoform), from pervanadate-treated BI-141 cells (mouse); experiment: co-IP; BI-141 T-cell hybridoma expressing SAP and individual Ly108 isoforms; cells treated with pervanadate before lysis in Brij 98; Ly108 precipitated with anti-Ly108 13G3-19D and protein-G agarose, blot with anti-SAP; in a separate experiment the precipitates were deglycosylated with PNGaseF
[2] = target: T2, Ly108-H1 in thymocytes from transgenic mice (mouse); experiment: co-IP; thymocytes from transgenic mice; details only in Supplementary Figure S2 (not shown)

binding [1]	binding [2]	Binder
binds	–	SLAM-associated protein (SAP) (protein, UniProt O88890 1-126) MDAVTVYHGKISRETGEKLLLATGLDGSYLLRDSESVPGVYCLCVLYQGYIYTYRVSQTETGSWSAETAPGVHKRFFRKVKNLISAFQKPDQGIVTPLQYPVEKSSGRGPQAPTGRRDSDICLNAP
–	binds	SLAM-associated protein (SAP), endogenous in murine thymocytes (protein, UniProt O88890 1-126) MDAVTVYHGKISRETGEKLLLATGLDGSYLLRDSESVPGVYCLCVLYQGYIYTYRVSQTETGSWSAETAPGVHKRFFRKVKNLISAFQKPDQGIVTPLQYPVEKSSGRGPQAPTGRRDSDICLNAP
